Measurements taken from article PMC10138577, “Prenylated Flavonoids with Selective Toxicity against Human Cancers” (International Journal of Molecular Sciences, 2023).

What was measured:
Assay type in all cases: cell-based
[1] = system: T47D human breast ductal carcinoma cells; experiment: In vitro antiproliferative assay (SRB), T47D
From the text: (§1) The following established in vitro cell lines were applied: human breast adenocarcinoma (MCF-7 and SK-BR-3), human breast ductal carcinoma (T47D), human prostate adenocarcinoma (PC-3), human prostate carcinoma (Du145), human colorectal adenocarcinoma (HT-29 and LoVo), doxorubicin-resistant human colorectal adenocarcinoma (LoVo/Dx), human myelomonocytic leukemia (MV-4-11), human lung adenocarcinoma (A549), normal murine embryonic fibroblasts (BALB/3T3) and human lung microvascular endothelial (HLMEC). All the cell lines were obtained from the American Type Culture Collection (Rockville, MD, USA) except for LoVo and LoVo/DX, which were received from the Technical University of Gdańsk, Poland, courtesy of Prof. E. Borowski. All the cell lines were maintained in the Institute of Immunology and Experimental Therapy, Wroclaw, Poland. […]
(§2) The details of this technique were described by Skehan et al.. […] The unbound dye was removed by washing the plates five times with 1% acetic acid, whereas the stain bound to the cells was extracted with 150 µL of 10 mM unbuffered Tris base for determination of the optical density at a 540 nm wavelength in a computer-interfaced, 96-well microtiter plate reader–Multiskan FC photometer (Thermo Scientific, Waltham, MA, USA). The background optical density was measured in the wells filled with culture medium, without the cells. […]

[2] = system: MV-4-11 human myelomonocytic leukemia cells; experiment: In vitro antiproliferative assay (MTT), MV-4-11
From the text: The following established in vitro cell lines were applied: human breast adenocarcinoma (MCF-7 and SK-BR-3), human breast ductal carcinoma (T47D), human prostate adenocarcinoma (PC-3), human prostate carcinoma (Du145), human colorectal adenocarcinoma (HT-29 and LoVo), doxorubicin-resistant human colorectal adenocarcinoma (LoVo/Dx), human myelomonocytic leukemia (MV-4-11), human lung adenocarcinoma (A549), normal murine embryonic fibroblasts (BALB/3T3) and human lung microvascular endothelial (HLMEC). All the cell lines were obtained from the American Type Culture Collection (Rockville, MD, USA) except for LoVo and LoVo/DX, which were received from the Technical University of Gdańsk, Poland, courtesy of Prof. E. Borowski. All the cell lines were maintained in the Institute of Immunology and Experimental Therapy, Wroclaw, Poland. The cells were cultured in the following media: DMEM medium (BALB/3T3), Eagle medium (MCF-7, SK-BR-3, Du145), RPMI medium (HLMEC, MV-4-11) or RPMI 1640 + Opti-MEM (1:1) medium (A549, T47D, LoVo, LoVo/Dx, PC-3, HT-29). The DMEM medium was supplemented with 2 mM L-glutamine and 10% fetal bovine serum. The Eagle medium was supplemented with 4 mM L-glutamine, 10% fetal bovine serum, 1 mM sodium pyruvate for Du145 cells or 2 mM L-glutamine, 1% amino acids and 0.8 mg L^−1 of insulin for MCF-7 and SK-BR-3. The RPMI medium was supplemented with 2 mM L-glutamine, 1 mM sodium pyruvate and 10% fetal bovine serum. The RPMI 1640 + Opti-MEM (1:1) medium was supplemented with 2 mM L-glutamine, 5% fetal bovine serum (PC-3, A549) and 0.8 mg L^−1 insulin (T47D) or 1 mM sodium pyruvate (HT-29, LoVo, LoVoDx) and 0.1 ug/mL doxorubicin (LoVo/Dx). […]
The details of this technique were described by Antoszczak et al.. The proliferation inhibition of human myelomonocytic leukemia (MV-4-11) by the tested compounds was measured using the MTT assay. […] The plates were incubated for 24 h for the formazan crystals to be released from the cells and dissolved, and then the absorbance of each well was read on a 96-well microtiter plate reader (Multiskan FC photometer (Thermo Scientific)) at a 570 nm wavelength.
(§3) Twenty-four hours before incubation with the tested compounds, the cells were seeded in 96-well plates (Sarstedt, Nümbrecht, Germany) at a density of 10^4 cells per well (10^3 cells per well for HLMEC) in 100 µL of culture medium. […] The results were calculated as the IC50 (μM) (half maximal inhibitory concentration), i.e., the concentration of the tested agent that inhibits the proliferation of the cancer cell population by half. The IC50 values and the mean values ± SD calculated for each experiment separately using GraphPad Prism software (GraphPad Software 9.1.0, San Diego, CA, USA) are presented in Table S1 in the Supplementary Materials.

[3] = system: Du145 human prostate carcinoma cells; experiment: In vitro antiproliferative assay (SRB), Du145
From the text: as §1, §2

[4] = system: SK-BR-3 human breast adenocarcinoma cells; experiment: In vitro antiproliferative assay (SRB), SK-BR-3
From the text: as §1, §2

[5] = system: LoVo human colorectal adenocarcinoma cells; experiment: In vitro antiproliferative assay (SRB), LoVo
From the text: as §1, §2

[6] = system: PC-3 human prostate adenocarcinoma cells; experiment: In vitro antiproliferative assay (SRB), PC-3
From the text: as §1, §2

[7] = system: HT-29 human colorectal adenocarcinoma cells; experiment: In vitro antiproliferative assay (SRB), HT-29
From the text: The following established in vitro cell lines were applied: human breast adenocarcinoma (MCF-7 and SK-BR-3), human breast ductal carcinoma (T47D), human prostate adenocarcinoma (PC-3), human prostate carcinoma (Du145), human colorectal adenocarcinoma (HT-29 and LoVo), doxorubicin-resistant human colorectal adenocarcinoma (LoVo/Dx), human myelomonocytic leukemia (MV-4-11), human lung adenocarcinoma (A549), normal murine embryonic fibroblasts (BALB/3T3) and human lung microvascular endothelial (HLMEC). All the cell lines were obtained from the American Type Culture Collection (Rockville, MD, USA) except for LoVo and LoVo/DX, which were received from the Technical University of Gdańsk, Poland, courtesy of Prof. E. Borowski. All the cell lines were maintained in the Institute of Immunology and Experimental Therapy, Wroclaw, Poland. The cells were cultured in the following media: DMEM medium (BALB/3T3), Eagle medium (MCF-7, SK-BR-3, Du145), RPMI medium (HLMEC, MV-4-11) or RPMI 1640 + Opti-MEM (1:1) medium (A549, T47D, LoVo, LoVo/Dx, PC-3, HT-29). The DMEM medium was supplemented with 2 mM L-glutamine and 10% fetal bovine serum. The Eagle medium was supplemented with 4 mM L-glutamine, 10% fetal bovine serum, 1 mM sodium pyruvate for Du145 cells or 2 mM L-glutamine, 1% amino acids and 0.8 mg L^−1 of insulin for MCF-7 and SK-BR-3. The RPMI medium was supplemented with 2 mM L-glutamine, 1 mM sodium pyruvate and 10% fetal bovine serum. The RPMI 1640 + Opti-MEM (1:1) medium was supplemented with 2 mM L-glutamine, 5% fetal bovine serum (PC-3, A549) and 0.8 mg L^−1 insulin (T47D) or 1 mM sodium pyruvate (HT-29, LoVo, LoVoDx) and 0.1 ug/mL doxorubicin (LoVo/Dx). The media contained antibiotics: 100 µg mL^−1 streptomycin and 100 U mL^−1 penicillin. All the cell lines were incubated at 37 °C in a humid atmosphere saturated with 5% CO2.
The details of this technique were described by Skehan et al.. […] The unbound dye was removed by washing the plates five times with 1% acetic acid, whereas the stain bound to the cells was extracted with 150 µL of 10 mM unbuffered Tris base for determination of the optical density at a 540 nm wavelength in a computer-interfaced, 96-well microtiter plate reader–Multiskan FC photometer (Thermo Scientific, Waltham, MA, USA). The background optical density was measured in the wells filled with culture medium, without the cells.
as §3, with “The IC50 values and the mean values ± SD calculated for each experiment separately using GraphPad Prism software (GraphPad Software 9.1.0, San Diego, CA, USA) are presented in Table S1 in the Supplementary Materials.” left out

[8] = system: A549 human lung adenocarcinoma cells; experiment: In vitro antiproliferative assay (SRB), A549
From the text: as §1, §2

[9] = system: MCF-7 human breast adenocarcinoma cells; experiment: In vitro antiproliferative assay (SRB), MCF-7
From the text: as §1, §2

[10] = system: LoVo/Dx doxorubicin-resistant human colorectal adenocarcinoma cells; experiment: In vitro antiproliferative assay (SRB), LoVo/Dx
From the text: as §1, §2

SMILES: N.N.[Cl][Pt][Cl] [Cisplatin, cisplatin, reference compound]
- Calculated selectivity index SIB ([1]; IC50 BALB/3T3/IC50 T47D): 0.69
- Calculated selectivity index SIA ([1]; IC50 HLMEC/IC50 T47D): 0.10
- Calculated selectivity index SIB ([2]; IC50 BALB/3T3/IC50 MV-4-11): 8.07
- Calculated selectivity index SIA ([2]; IC50 HLMEC/IC50 MV-4-11): 1.14
- antiproliferative activity relative to aurone (2), more active ([2]; MV-4-11, cisplatin vs aurone (2)): 6.7 fold
- antiproliferative activity relative to xanthohumol (1), more active ([2]; MV-4-11, cisplatin vs xanthohumol (1)): 7.3 fold
- Calculated selectivity index SIB ([3]; IC50 BALB/3T3/IC50 Du145): 0.96
- Calculated selectivity index SIA ([3]; IC50 HLMEC/IC50 Du145): 0.13
- Calculated selectivity index SIB ([4]; IC50 BALB/3T3/IC50 SK-BR-3): 0.42
- Calculated selectivity index SIA ([4]; IC50 HLMEC/IC50 SK-BR-3): 0.06
- Calculated selectivity index SIB ([5]; IC50 BALB/3T3/IC50 LoVo): 2.07
- Calculated selectivity index SIA ([5]; IC50 HLMEC/IC50 LoVo): 0.29
- Calculated selectivity index SIB ([6]; IC50 BALB/3T3/IC50 PC-3): 0.59
- Calculated selectivity index SIA ([6]; IC50 HLMEC/IC50 PC-3): 0.08
- antiproliferative activity relative to aurone (2), more active ([7]; HT-29, cisplatin vs aurone (2)): 3.3 fold
- antiproliferative activity relative to xanthohumol (1), more active ([7]; HT-29, cisplatin vs xanthohumol (1)): 4.8 fold
- Calculated selectivity index SIB ([7]; IC50 BALB/3T3/IC50 HT-29): 0.47
- Calculated selectivity index SIA ([7]; IC50 HLMEC/IC50 HT-29): 0.07
- Calculated selectivity index SIB ([8]; IC50 BALB/3T3/IC50 A549): 0.79
- Calculated selectivity index SIA ([8]; IC50 HLMEC/IC50 A549): 0.11
- Calculated selectivity index SIB ([9]; IC50 BALB/3T3/IC50 MCF-7): 0.79
- Calculated selectivity index SIA ([9]; IC50 HLMEC/IC50 MCF-7): 0.11
- Calculated selectivity index SIB ([10]; IC50 BALB/3T3/IC50 LoVo/Dx): 1.00
- Calculated selectivity index SIA ([10]; IC50 HLMEC/IC50 LoVo/Dx): 0.14
